Measurements: PMC1868955, “Crystal Structure of the P Pilus Rod Subunit PapA” (PLoS Pathogens, 2007)
No constants are given. Whether binding was seen depends on the method and setting. Some entries that bind do so weakly or less than the wild type. For some of these results: Tags and fused reporters may be left off the sequences shown.

How the values were obtained:
[1] = target: PapA wild-type (uropathogenic Escherichia coli) (UniProt P04127); experiment: SEC; fractions of the PapD/(PapA)2 peak pooled and run again on gel filtration 24 hours later; unpublished data; both purified
[2] = target: PapA wild-type (uropathogenic Escherichia coli) (UniProt P04127); experiment: negative-stain electron microscopy; PapD/PapA samples frozen and thawed five times at 150 μg/ml in 10–20 mM TrisHCl pH 7.6, 20–50 mM NaCl; used the same day or kept at 4 °C up to 40 d; 1% uranyl acetate; both purified
[3] = target: PapA wild-type (uropathogenic Escherichia coli) (UniProt P04127); experiment: SEC; gel filtration of co-expressed PapDHis/PapA complexes immediately after purification; Superdex75 120 ml, 20 mM TrisHCl pH 7.5, 20 mM NaCl; both purified
[4] = target: T1, PapDHis (uropathogenic Escherichia coli) (UniProt P15319); experiment: as above
T1 sequence: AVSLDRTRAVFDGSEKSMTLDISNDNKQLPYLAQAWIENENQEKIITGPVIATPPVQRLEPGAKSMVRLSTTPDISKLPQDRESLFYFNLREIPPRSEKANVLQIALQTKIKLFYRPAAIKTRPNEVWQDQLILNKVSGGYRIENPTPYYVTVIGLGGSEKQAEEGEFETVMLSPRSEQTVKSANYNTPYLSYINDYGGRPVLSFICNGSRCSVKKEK

Measured: binding

B1: PapA wild-type (protein, UniProt P04127 23-185)
chain: APTIPQGQGKVTFNGTVVDAPCSISQKSADQSIDFGQLSKSFLEAGGVSKPMDLDIELVNCDITAFKGGNGAKKGTVKLAFTGPIVNGHSDELDTNGGTGTAIVVQGAGKNVVFDGSEGDANTLKDGENVLHYTAVVKKSSAVGAAVTEGAFSAVANFNLTYQ
binds: all assays above
